Results from paper PMC10445734.

Key:
Toll7-3xHA (Drosophila) = biological target: T1, Toll7-3xHA (Drosophila) (UniProt Q7KIN0); assay: co-IP; Drosophila S2R+ cells transiently transfected with HA-tagged candidate protein and Myc-tagged Fra; immunoprecipitation with anti-HA antibody, protein A and G agarose beads, 4°C, TBSV with 1% NP40; western blot
T1 sequence: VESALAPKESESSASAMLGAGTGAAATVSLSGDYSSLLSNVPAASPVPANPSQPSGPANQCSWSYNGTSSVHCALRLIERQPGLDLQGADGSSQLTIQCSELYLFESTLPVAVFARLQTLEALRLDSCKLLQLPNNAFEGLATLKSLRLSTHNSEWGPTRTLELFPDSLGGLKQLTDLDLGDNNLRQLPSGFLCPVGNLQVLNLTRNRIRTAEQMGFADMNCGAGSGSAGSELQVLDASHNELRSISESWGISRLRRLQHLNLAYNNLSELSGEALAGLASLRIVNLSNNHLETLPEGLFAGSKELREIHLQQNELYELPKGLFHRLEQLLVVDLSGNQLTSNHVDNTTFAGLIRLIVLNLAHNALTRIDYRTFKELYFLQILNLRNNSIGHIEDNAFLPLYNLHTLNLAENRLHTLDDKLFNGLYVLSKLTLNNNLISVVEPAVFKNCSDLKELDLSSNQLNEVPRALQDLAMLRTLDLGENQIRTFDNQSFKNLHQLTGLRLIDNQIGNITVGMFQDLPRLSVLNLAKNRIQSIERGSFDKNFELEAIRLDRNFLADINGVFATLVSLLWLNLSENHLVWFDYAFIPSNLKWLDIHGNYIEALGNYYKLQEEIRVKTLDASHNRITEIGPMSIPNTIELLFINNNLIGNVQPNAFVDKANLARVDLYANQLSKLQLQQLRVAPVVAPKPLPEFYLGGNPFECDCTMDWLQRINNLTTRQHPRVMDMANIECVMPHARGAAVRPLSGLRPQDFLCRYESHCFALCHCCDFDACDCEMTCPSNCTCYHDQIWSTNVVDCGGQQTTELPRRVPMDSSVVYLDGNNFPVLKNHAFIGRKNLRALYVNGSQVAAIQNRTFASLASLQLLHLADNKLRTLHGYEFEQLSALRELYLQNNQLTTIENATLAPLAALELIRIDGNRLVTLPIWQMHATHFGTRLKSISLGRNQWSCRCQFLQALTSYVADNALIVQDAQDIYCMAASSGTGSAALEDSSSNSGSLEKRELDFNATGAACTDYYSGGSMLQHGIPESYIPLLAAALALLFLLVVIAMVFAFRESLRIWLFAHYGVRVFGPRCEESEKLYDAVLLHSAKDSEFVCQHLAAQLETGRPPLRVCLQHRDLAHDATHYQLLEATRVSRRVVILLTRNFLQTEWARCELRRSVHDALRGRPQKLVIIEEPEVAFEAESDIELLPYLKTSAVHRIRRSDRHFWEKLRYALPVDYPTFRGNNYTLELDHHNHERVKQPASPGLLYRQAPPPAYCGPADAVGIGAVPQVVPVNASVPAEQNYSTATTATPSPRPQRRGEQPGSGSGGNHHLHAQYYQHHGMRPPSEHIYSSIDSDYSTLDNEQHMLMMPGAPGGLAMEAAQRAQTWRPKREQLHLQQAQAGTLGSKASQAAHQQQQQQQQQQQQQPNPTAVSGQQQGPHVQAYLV

Flo-2-3xHA (Drosophila) = biological target: T2, Flo-2-3xHA (Drosophila) (UniProt O61492); assay: as above
T2 sequence: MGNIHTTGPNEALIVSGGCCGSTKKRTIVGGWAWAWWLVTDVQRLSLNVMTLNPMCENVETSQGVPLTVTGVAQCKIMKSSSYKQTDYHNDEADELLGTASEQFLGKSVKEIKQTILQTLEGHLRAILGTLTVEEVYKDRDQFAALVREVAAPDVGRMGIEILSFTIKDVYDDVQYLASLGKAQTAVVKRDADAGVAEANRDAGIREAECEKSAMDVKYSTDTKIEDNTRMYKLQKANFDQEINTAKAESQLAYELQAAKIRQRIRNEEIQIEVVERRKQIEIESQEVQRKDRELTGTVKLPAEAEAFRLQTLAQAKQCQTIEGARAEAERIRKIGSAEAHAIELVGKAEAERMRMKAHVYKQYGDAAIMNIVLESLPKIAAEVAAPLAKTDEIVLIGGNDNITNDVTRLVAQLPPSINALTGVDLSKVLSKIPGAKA

binding (Toll7-3xHA (Drosophila)): binds
binding (Flo-2-3xHA (Drosophila)): binds
Substance: Myc-tagged Fra (Drosophila) (receptor)

No constants are given. Whether binding was seen depends on the method and setting. Binding seen in cells or lysates may run through a third protein. Binding calls can cover weak binding; strength is not graded here.
